Experimental data: PubChem BioAssay AID1259405 (NCATS, 2018)
Aim: 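Knock-downs that lift recombinant protein yield in hamster ovary cells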 (primary screen). Cells: Chinese hamster CHO-K1 ovary cells with stable secreted eGFP expression. Knock-down reagent: single siRNA against mouse genes, 0.8 pmol siRNA per well (2 µl of 400 nM stock). Duration: 3 days. Detection: 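Per-well intracellular GFP measured by laser scanning cytometry, plus viability from ATP luminescence, each relative to plate median of non-targeting control wells, in %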. Scale: GFP, % of control: higher = more GFP per well, higher productivity; viability (ATP), % of control: higher = more viable cells (more ATP). Active means: 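a knock-down is called active if GFP reaches 120% or more of non-targeting control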.
The deposit covers about 50,000 reagents; below is a part drawn at random. About 4,000 of them (8%) were called active. 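Mouse siRNA library applied to hamster cells; one well for each siRNA.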 The numbers tell different reagents against one gene apart. Reagent sequences are not shown.

target gene | reagent | GFP, % of control | viability (ATP), % of control | call
Or51b17 | 1 | 66.1 | 60.3 | inactive
Or51b17 | 2 | 73.7 | 62 | inactive
Or51b17 | 3 | 52.4 | 40 | inactive
Tuba4a | 1 | 74.9 | 84.3 | inactive
Tuba4a | 2 | 157 | 136 | active
Clpb | 1 | 215 | 109 | active
Clpb | 2 | 73.9 | 87.3 | inactive
Clpb | 3 | 79.5 | 85.1 | inactive
Ms4a5 | 1 | 77.5 | 81.6 | inactive
Ms4a5 | 2 | 109 | 81 | inactive
Ms4a5 | 3 | 48.2 | 41.9 | inactive
Alox8 | 1 | 89.8 | 61.9 | inactive
Alox8 | 2 | 140 | 75.1 | active
Alox8 | 3 | 88.6 | 63.1 | inactive
Hba-x | 1 | 112 | 49.7 | inactive
Hba-x | 2 | 173 | 69 | active
Hba-x | 3 | 96.1 | 79.1 | inactive
Dxo | 1 | 77.9 | 86.8 | inactive
Dxo | 2 | 68.2 | 90.6 | inactive
Dxo | 3 | 60 | 86.7 | inactive
Lyzl1 | 1 | 70.4 | 93.4 | inactive
Lyzl1 | 2 | 76.9 | 108 | inactive
Lyzl1 | 3 | 46.5 | 52.2 | inactive
Ctnnd1 | 1 | 70.7 | 93.1 | inactive
Ctnnd1 | 2 | 147 | 98.5 | active
Ctnnd1 | 3 | 63.5 | 74.4 | inactive
Tbp | 1 | 80.3 | 97.2 | inactive
Tbp | 2 | 49.6 | 33.9 | inactive
a | 1 | 72.6 | 58.7 | inactive
a | 2 | 60.3 | 61.6 | inactive
a | 3 | 85 | 81.1 | inactive
Tbl1x | 1 | 99.9 | 90 | inactive
Tbl1x | 2 | 63.1 | 71.4 | inactive
Tbl1x | 3 | 98.5 | 99 | inactive

Entries listed so far whose gene name starts with L or l:
target gene | reagent | GFP, % of control | viability (ATP), % of control | call
Lyzl1 | 1 | 70.4 | 93.4 | inactive
Lyzl1 | 2 | 76.9 | 108 | inactive
Lyzl1 | 3 | 46.5 | 52.2 | inactive

The results go on:
target gene | reagent | GFP, % of control | viability (ATP), % of control | call
Or6z5 | 1 | 99.4 | 71.1 | inactive
Or6z5 | 2 | 61.3 | 79.9 | inactive
Or6z5 | 3 | 139 | 92.4 | active
Ar | 1 | 43.7 | 52.6 | inactive
Ar | 2 | 84.5 | 75.4 | inactive
Ar | 3 | 120 | 43.8 | active
Ube2t | 1 | 85.2 | 73.1 | inactive
Ube2t | 2 | 106 | 68.5 | inactive
Ube2t | 3 | 108 | 119 | inactive
Ints8 | 1 | 45.8 | 58.8 | inactive
Ints8 | 2 | 49.3 | 58 | inactive
Ints8 | 3 | 75.4 | 73.3 | inactive
Trappc8 | 1 | 72 | 91.4 | inactive
Trappc8 | 2 | 87.3 | 98.5 | inactive
Trappc8 | 3 | 75 | 104 | inactive
1700010D01Rik | 1 | 113 | 100 | inactive
1700010D01Rik | 2 | 58.3 | 77.6 | inactive
1700010D01Rik | 3 | 158 | 101 | active
Mtmr7 | 1 | 84.3 | 36.6 | inactive
Mtmr7 | 2 | 114 | 74.1 | inactive
Mtmr7 | 3 | 79.3 | 76.1 | inactive
Megf9 | 1 | 89 | 85.3 | inactive
Megf9 | 2 | 66.9 | 67.7 | inactive
Ulbp1 | 1 | 81.3 | 50.2 | inactive
Ulbp1 | 2 | 81.9 | 86.5 | inactive
Ulbp1 | 3 | 78.5 | 58.8 | inactive
Pcmtd2 | 1 | 79.5 | 81.9 | inactive
Pcmtd2 | 2 | 60.9 | 42.1 | inactive
Pcmtd2 | 3 | 34.4 | 30.8 | inactive
Zfp687 | 1 | 71.8 | 90.1 | inactive
Zfp687 | 2 | 112 | 85 | inactive
Morn4 | 1 | 83.1 | 39.1 | inactive
Morn4 | 2 | 70.6 | 67.3 | inactive
Morn4 | 3 | 134 | 137 | active
Gdpgp1 | 1 | 71.3 | 71.1 | inactive
Gdpgp1 | 2 | 102 | 85.4 | inactive
Gdpgp1 | 3 | 92.6 | 36.2 | inactive
Zfp146 | 1 | 77.9 | 111 | inactive
Zfp146 | 2 | 41.7 | 51 | inactive
Zfp146 | 3 | 28.9 | 132 | inactive
Tfec | 1 | 101 | 60.2 | inactive
Tfec | 2 | 66.2 | 72.5 | inactive
Tfec | 3 | 66.1 | 71.2 | inactive
Foxa3 | 1 | 73.5 | 70 | inactive
Foxa3 | 2 | 87.9 | 86.6 | inactive
Nr2e1 | 1 | 140 | 103 | active
Nr2e1 | 2 | 80.2 | 68.7 | inactive
Nr2e1 | 3 | 40.7 | 35.4 | inactive
Atp6v0a4 | 1 | 57.2 | 58.9 | inactive
Atp6v0a4 | 2 | 74.3 | 63.1 | inactive
Atp6v0a4 | 3 | 55.3 | 74 | inactive
